The source of these data is publication PMC8872304.

Sequences of proteins named here, by UniProt entry; tags and fusion partners are left off. Residues count along the entry.
UniProt P50887, 181-299: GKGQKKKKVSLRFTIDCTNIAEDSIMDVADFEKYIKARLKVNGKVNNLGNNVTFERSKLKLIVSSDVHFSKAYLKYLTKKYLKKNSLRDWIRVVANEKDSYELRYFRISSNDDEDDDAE

What all share (assay): EMSA
In data set [1] the target is RpL22/L22 polypeptide (Drosophila melanogaster) (UniProt P50887). To be noted: 0.6 ug protein, 2 ng DNA; EMSA with 2 ng labeled TERM3; pH and temperature not given (as previously described, ref 31); recombinant protein; protein details: pET200 tag (His6); label: radiolabeled.
Data set [2] concerns the target T1, RpL22/H5 polypeptide (Drosophila melanogaster) (UniProt P50887).
T1 sequence (looked up, limits assumed): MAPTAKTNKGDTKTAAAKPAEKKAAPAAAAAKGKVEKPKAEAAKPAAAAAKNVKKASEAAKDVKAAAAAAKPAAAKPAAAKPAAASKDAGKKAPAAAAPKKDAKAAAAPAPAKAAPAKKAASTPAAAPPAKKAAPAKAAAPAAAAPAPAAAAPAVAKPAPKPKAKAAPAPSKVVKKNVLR
To be noted: 1.2 ug protein, 2 ng DNA; EMSA with 2 ng labeled TERM3; pH and temperature not given (as previously described, ref 31); recombinant protein; protein details: pET200 tag (His6); label: radiolabeled. Background: In EMSA bound probe runs differently from free probe, usually more slowly.

In data set [3] the target is RpL22 (His6-RpL22) (Drosophila melanogaster) (UniProt P50887). To be noted: self-competition: complex lost with 5x unlabeled TERM3; EMSA with 2 ng labeled TERM3; pH and temperature not given (as previously described, ref 31); recombinant protein; residues 1-299; protein details: N-terminal His6 (pET200); label: radiolabeled.

For at least one entry, the source does not settle the construct or the ends of the probe. For part of these data: A negative result means that nothing was seen under these conditions. For part of these data: Tags and fusion partners may be left off the protein sequences shown.

With “AATTCATCAATCGCTGATATCAATCGCTGATATCAATCGCTGATG / CTAGAATCAGCGATTGATATCAGCGATTGATATCAGCGATTGATG [TERM3]”, the binding result in data set [1] is on record as “no binding”; in data set [2], “binds”; in data set [3] it was “binds”.
